PubChem BioAssay AID1508597 | Cure First, 2020
This is a random part of the about 2,100 reagents, in one setting of the screen. 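Calls flag viability under 80% in either arm, not effects specific to rucaparib; the reference for percent is not stated.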 Entries without a mark were called inactive. Some reagents were tested in more than one well and are listed for each. Not given: the 100% reference.

Purpose: 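Survival screen with siRNA in ovarian cancer cells derived from patients, with or without rucaparib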 (primary screen)
Cells: human ovarian carcinoma lines grown from tumours: OCI-P5x (papillary serous) and OCI-C5x (clear cell)
Reagents: siRNA pool against human genes, 1.25 pmol siRNA per well
Time to read-out: 72 h or 96 h, depending on the cell culture
Challenge: rucaparib 20 µM (about IC30) or vehicle, present until read-out
Rucaparib or vehicle: Vehicle
Cell line: OCI-P5x (serous)
Measurement: 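ATP luminescence measured at 72 or 96 h according to the culture, then normalised and expressed as percent viability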
Reading the numbers: viability, normalised: higher = more viable cells remaining
Rule for the call: 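a well counts as a hit if its normalised viability is under 80 percent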
Calls: active = viability under 80%; inactive = viability 80% or more

Gene | technical replicate | viability, normalised (%)
DMPK | 1 | 73.1 (active)
DMPK | 2 | 61 (active)
DMPK | 3 | 72.1 (active)
RPL3 | 1 | 48.2 (active)
RPL3 | 2 | 43.1 (active)
RPL3 | 3 | 46.4 (active)
KAT7 | 1 | 55 (active)
KAT7 | 2 | 54.4 (active)
KAT7 | 3 | 97.4
SUPV3L1 | 1 | 41.1 (active)
SUPV3L1 | 1 | 65.7 (active)
SUPV3L1 | 2 | 75.9 (active)
SUPV3L1 | 2 | 30.2 (active)
SUPV3L1 | 3 | 50.1 (active)
SUPV3L1 | 3 | 70 (active)
NEIL2 | 1 | 61.4 (active)
NEIL2 | 2 | 58.6 (active)
NEIL2 | 3 | 89.1
ASNS | 1 | 68.3 (active)
ASNS | 2 | 74.3 (active)
ASNS | 3 | 57 (active)
DDX11 | 1 | 39.6 (active)
DDX11 | 2 | 61 (active)
DDX11 | 3 | 54 (active)
STK10 | 1 | 43.9 (active)
STK10 | 2 | 45.1 (active)
STK10 | 3 | 58.3 (active)
ITGB1 | 1 | 60.7 (active)
ITGB1 | 2 | 67.5 (active)
ITGB1 | 3 | 67.5 (active)
G6PC1 | 1 | 53.5 (active)
G6PC1 | 2 | 69.8 (active)
G6PC1 | 3 | 62.1 (active)
KSR2 | 1 | 82.6
KSR2 | 2 | 69.8 (active)
KSR2 | 3 | 59.2 (active)
CDK18 | 1 | 70.3 (active)
CDK18 | 2 | 79.5 (active)
CDK18 | 3 | 68.5 (active)
MAP4K2 | 1 | 94
MAP4K2 | 2 | 95.3
MAP4K2 | 3 | 98.5
TAF1L | 1 | 78 (active)
TAF1L | 1 | 72.9 (active)
TAF1L | 2 | 80.9
TAF1L | 2 | 77.2 (active)
TAF1L | 3 | 81.2
TAF1L | 3 | 69.6 (active)
STING1 | 1 | 67.1 (active)
STING1 | 2 | 61.2 (active)
STING1 | 3 | 54.8 (active)
MAST2 | 1 | 80.2
MAST2 | 2 | 65.3 (active)
MAST2 | 3 | 64.4 (active)
CAMKK1 | 1 | 87.1
CAMKK1 | 2 | 81.5
CAMKK1 | 3 | 80.2

Reformatted: results already given.
| Gene | technical replicate | viability, normalised (%) |
| --- | --- | --- |
| ITGB1 | 1 | 60.7 (active) |
| ITGB1 | 2 | 67.5 (active) |
| ITGB1 | 3 | 67.5 (active) |
| G6PC1 | 1 | 53.5 (active) |
| G6PC1 | 2 | 69.8 (active) |
| G6PC1 | 3 | 62.1 (active) |
| KSR2 | 1 | 82.6 |
